In the supplement of paper PMC8728848:
The list shows a part of the results.

Assays:
Experiment in all cases: glycan array binding signal (z-score within array); higher = stronger binding
Conditions in all cases: glycan notation: IUPAC condensed, linker removed
GlcNAc(b1-3)Gal(b1-4)Glc = target: GlcNAc(b1-3)Gal(b1-4)Glc
Summary of the method: (§1)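 Glycan array data came from 3228 arrays in the Consortium for Functional Glycomics database, and only arrays with an available protein sequence were kept. Glycan names were put into IUPAC-condensed notation, and columns mapping to the same glycan were averaged. The binding signal is a within-array Z-score, averaged across arrays of one protein sequence run at different concentrations or buffers and across linkers. A negative Z-score can be read as non-binding.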

[1] = target: GlcNAc(b1-3)Gal(b1-4)GlcNAc
Summary of the method: as §1

[2] = target: GlcNAc(b1-3)Gal(b1-4)GlcNAc(b1-2)Man(a1-3)[GlcNAc(b1-3)Gal(b1-4)GlcNAc(b1-2)Man(a1-6)]Man(b1-4)GlcNAc(b1-4)GlcNAc
Summary of the method: as §1

[3] = target: GlcNAc(b1-3)Gal(b1-4)GlcNAc(b1-2)Man(a1-3)[GlcNAc(b1-3)Gal(b1-4)GlcNAc(b1-2)Man(a1-6)]Man(b1-4)GlcNAc(b1-4)[Fuc(a1-6)]GlcNAc
Summary of the method: as §1

[4] = target: GlcNAc(b1-3)Gal(b1-4)GlcNAc(b1-2)[GlcNAc(b1-3)Gal(b1-4)GlcNAc(b1-6)]Man(a1-6)[GlcNAc(b1-3)Gal(b1-4)GlcNAc(b1-2)Man(a1-3)]Man(b1-4)GlcNAc(b1-4)GlcNAc
Summary of the method: as §1

[5] = target: GlcNAc(b1-3)Gal(b1-4)GlcNAc(b1-3)Gal(b1-4)GlcNAc
Summary of the method: as §1

[6] = target: GlcNAc(b1-3)Gal(b1-4)GlcNAc(b1-3)Gal(b1-4)GlcNAc(b1-2)Man(a1-3)[GlcNAc(b1-3)Gal(b1-4)GlcNAc(b1-3)Gal(b1-4)GlcNAc(b1-2)Man(a1-6)]Man(b1-4)GlcNAc(b1-4)GlcNAc
Summary of the method: as §1

[7] = target: GlcNAc(b1-3)Gal(b1-4)GlcNAc(b1-3)Gal(b1-4)GlcNAc(b1-2)Man(a1-3)[GlcNAc(b1-3)Gal(b1-4)GlcNAc(b1-3)Gal(b1-4)GlcNAc(b1-2)Man(a1-6)]Man(b1-4)GlcNAc(b1-4)[Fuc(a1-6)]GlcNAc
Summary of the method: as §1

[8] = target: GlcNAc(b1-3)Gal(b1-4)GlcNAc(b1-3)Gal(b1-4)GlcNAc(b1-2)[GlcNAc(b1-3)Gal(b1-4)GlcNAc(b1-3)Gal(b1-4)GlcNAc(b1-6)]Man(a1-6)[GlcNAc(b1-3)Gal(b1-4)GlcNAc(b1-3)Gal(b1-4)GlcNAc(b1-2)Man(a1-3)]Man(b1-4)GlcNAc(b1-4)[Fuc(a1-6)]GlcNAc
Summary of the method: as §1

[9] = target: GlcNAc(b1-3)Gal(b1-4)GlcNAc(b1-3)Gal(b1-4)GlcNAc(b1-3)Gal(b1-4)GlcNAc(b1-2)Man(a1-3)[GlcNAc(b1-3)Gal(b1-4)GlcNAc(b1-3)Gal(b1-4)GlcNAc(b1-3)Gal(b1-4)GlcNAc(b1-2)Man(a1-6)]Man(b1-4)GlcNAc(b1-4)GlcNAc
Summary of the method: as §1

[10] = target: GlcNAc(b1-3)Gal(b1-4)GlcNAc(b1-3)Gal(b1-4)GlcNAc(b1-3)Gal(b1-4)GlcNAc(b1-2)Man(a1-3)[GlcNAc(b1-3)Gal(b1-4)GlcNAc(b1-3)Gal(b1-4)GlcNAc(b1-3)Gal(b1-4)GlcNAc(b1-2)Man(a1-6)]Man(b1-4)GlcNAc(b1-4)[Fuc(a1-6)]GlcNAc
Summary of the method: as §1

[11] = target: GlcNAc(b1-3)Gal(b1-4)GlcNAc(b1-3)Gal(b1-4)GlcNAc(b1-3)Gal(b1-4)GlcNAc(b1-2)[GlcNAc(b1-3)Gal(b1-4)GlcNAc(b1-3)Gal(b1-4)GlcNAc(b1-3)Gal(b1-4)GlcNAc(b1-6)]Man(a1-6)[GlcNAc(b1-3)Gal(b1-4)GlcNAc(b1-3)Gal(b1-4)GlcNAc(b1-3)Gal(b1-4)GlcNAc(b1-2)Man(a1-3)]Man(b1-4)GlcNAc(b1-4)[Fuc(a1-6)]GlcNAc
Summary of the method: as §1

[12] = target: GlcNAc(b1-3)Gal(b1-4)GlcNAc(b1-3)Gal(b1-4)GlcNAc(b1-3)Gal(b1-4)GlcNAc(b1-3)Gal(b1-4)GlcNAc(b1-2)Man(a1-3)[GlcNAc(b1-3)Gal(b1-4)GlcNAc(b1-3)Gal(b1-4)GlcNAc(b1-3)Gal(b1-4)GlcNAc(b1-3)Gal(b1-4)GlcNAc(b1-2)Man(a1-6)]Man(b1-4)GlcNAc(b1-4)GlcNAc
Summary of the method: as §1

[13] = target: GlcNAc(b1-3)Gal(b1-4)GlcNAc(b1-3)Gal(b1-4)GlcNAc(b1-3)Gal(b1-4)GlcNAc(b1-3)Gal(b1-4)GlcNAc(b1-2)Man(a1-3)[GlcNAc(b1-3)Gal(b1-4)GlcNAc(b1-3)Gal(b1-4)GlcNAc(b1-3)Gal(b1-4)GlcNAc(b1-3)Gal(b1-4)GlcNAc(b1-2)Man(a1-6)]Man(b1-4)GlcNAc(b1-4)[Fuc(a1-6)]GlcNAc
Summary of the method: as §1

[14] = target: GlcNAc(b1-3)Gal(b1-4)GlcNAc(b1-3)Gal(b1-4)GlcNAc(b1-3)Gal(b1-4)GlcNAc(b1-3)Gal(b1-4)GlcNAc(b1-2)[GlcNAc(b1-3)Gal(b1-4)GlcNAc(b1-3)Gal(b1-4)GlcNAc(b1-3)Gal(b1-4)GlcNAc(b1-3)Gal(b1-4)GlcNAc(b1-6)]Man(a1-6)[GlcNAc(b1-3)Gal(b1-4)GlcNAc(b1-3)Gal(b1-4)GlcNAc(b1-3)Gal(b1-4)GlcNAc(b1-3)Gal(b1-4)GlcNAc(b1-2)Man(a1-3)]Man(b1-4)GlcNAc(b1-4)[Fuc(a1-6)]GlcNAc
Summary of the method: as §1

[15] = target: GlcNAc(b1-3)Gal(b1-4)GlcNAc(b1-3)Gal(b1-4)GlcNAc(b1-3)GalNAc
Summary of the method: as §1

[16] = target: GlcNAc(b1-3)Gal(b1-4)GlcNAc(b1-3)GalNAc
Summary of the method: as §1

[17] = target: GlcNAc(b1-3)Gal(b1-4)GlcNAc(b1-3)[GlcNAc(b1-3)Gal(b1-4)GlcNAc(b1-3)]GalNAc
Summary of the method: as §1

[18] = target: GlcNAc(b1-3)Gal(b1-4)GlcNAc(b1-6)[Gal(b1-3)]GalNAc
Summary of the method: as §1

[19] = target: GlcNAc(b1-3)Gal(b1-4)GlcNAc(b1-6)[GlcNAc(b1-3)Gal(b1-3)]GalNAc
Summary of the method: as §1

[20] = target: GlcNAc(b1-3)Gal(b1-4)GlcNAc(b1-6)[GlcNAc(b1-3)]Gal(b1-4)GlcNAc
Summary of the method: as §1

GlcNAc(b1-3)GalNAc = target: GlcNAc(b1-3)GalNAc
Summary of the method: as §1

GlcNAc(b1-3)Man = target: GlcNAc(b1-3)Man
Summary of the method: as §1

[21] = target: GlcNAc(b1-3)[GlcNAc(b1-4)][GlcNAc(b1-6)]GlcNAc
Summary of the method: as §1

[22] = target: GlcNAc(b1-3)[GlcNAc(b1-6)]Gal(b1-4)GlcNAc
Summary of the method: as §1

[23] = target: GlcNAc(b1-3)[GlcNAc(b1-6)]GalNAc
Summary of the method: as §1

[24] = target: GlcNAc(b1-4)Gal(b1-4)GlcNAc
Summary of the method: as §1

GlcNAc(b1-4)GlcNAc = target: GlcNAc(b1-4)GlcNAc
Summary of the method: as §1

[25] = target: GlcNAc(b1-4)GlcNAc(b1-4)GlcNAc
Summary of the method: as §1

[26] = target: GlcNAc(b1-4)GlcNAc(b1-4)GlcNAc(b1-4)GlcNAc(b1-4)GlcNAc
Summary of the method: as §1

[27] = target: GlcNAc(b1-4)GlcNAc(b1-4)GlcNAc(b1-4)GlcNAc(b1-4)GlcNAc(b1-4)GlcNAc
Summary of the method: as §1

[28] = target: GlcNAc(b1-4)[GlcNAc(b1-6)]GalNAc
Summary of the method: as §1

[29] = target: GlcNAc(b1-6)Gal(b1-4)GlcNAc
Summary of the method: as §1

GlcNAc(b1-6)GalNAc = target: GlcNAc(b1-6)GalNAc
Summary of the method: as §1

[30] = target: GlcNAc6S(b1-3)Gal(b1-4)GlcNAc
Summary of the method: as §1

Kdn(a2-3)Gal(b1-3)GalNAc = target: Kdn(a2-3)Gal(b1-3)GalNAc
Summary of the method: as §1

Kdn(a2-3)Gal(b1-3)GlcNAc = target: Kdn(a2-3)Gal(b1-3)GlcNAc
Summary of the method: as §1

Kdn(a2-3)Gal(b1-4)Glc = target: Kdn(a2-3)Gal(b1-4)Glc
Summary of the method: as §1

Kdn(a2-3)Gal(b1-4)GlcNAc = target: Kdn(a2-3)Gal(b1-4)GlcNAc
Summary of the method: as §1

[31] = target: Kdn(a2-3)Gal(b1-4)[Fuc(a1-3)]GlcNAc
Summary of the method: as §1

Kdn(a2-6)Gal(b1-4)GlcNAc = target: Kdn(a2-6)Gal(b1-4)GlcNAc
Summary of the method: as §1

[32] = target: Man(a1-2)Man(a1-2)Man(a1-3)Man
Summary of the method: as §1

[33] = target: Man(a1-2)Man(a1-2)Man(a1-6)[Man(a1-3)]Man
Summary of the method: as §1

Man(a1-2)Man(a1-3)Man = target: Man(a1-2)Man(a1-3)Man
Summary of the method: as §1

[34] = target: Man(a1-2)Man(a1-3)[Man(a1-2)Man(a1-6)]Man
Summary of the method: as §1

B1: ArathEULS3 TAP (Arabidopsis thaliana) (protein)
chain: IDENLYFQGGSMDEKTTGWRGGHVVEGLAGELEQLRARLEHHPQGQREPGGGGSLEITSLYKKAGFMEHHHQHHRHHQRDDGEDDRQSFGVPPPHVDAPPQPHGLYQSQPHFDPYAPTPQAPAPYRSETQFEPHAPPPYRSEPYFETPAPPPSFGHVSHVGHQSPNESYPPEHHRYGGYQQPSNSLLESHGDHSGVTHVAHHSSNQPQSSSGVYHKPDENRLPDNLAGLAGRATVKVYSKAEPNYNLTIRDGKVILAPADPSDEAQHWYKDEKYSTKVKDADGHPCFALVNKATGEAMKHSVGATHPVHLIRYVPDKLDESVLWTESKDFGDGYRTIRMVNNTRLNVDAYHGDSKSGGVRDGTTIVLWDWNKGDNQLWKIFPF
glycan array binding signal (z-score) (GlcNAc(b1-3)Gal(b1-4)Glc): -0.706 | glycan array binding signal (z-score) [1]: -0.59 | glycan array binding signal (z-score) [2]: -0.107 | glycan array binding signal (z-score) [3]: -0.354 | glycan array binding signal (z-score) [4]: 1.41 | glycan array binding signal (z-score) [5]: 0.442 | glycan array binding signal (z-score) [6]: 2.26 | glycan array binding signal (z-score) [7]: -0.27 | glycan array binding signal (z-score) [8]: 0.973 | glycan array binding signal (z-score) [9]: 1.52 | glycan array binding signal (z-score) [10]: 2.42 | glycan array binding signal (z-score) [11]: -0.128 | glycan array binding signal (z-score) [12]: 0.229 | glycan array binding signal (z-score) [13]: 0.348 | glycan array binding signal (z-score) [14]: 3.16 | glycan array binding signal (z-score) [15]: 0.432 | glycan array binding signal (z-score) [16]: -0.81 | glycan array binding signal (z-score) [17]: 0.844 | glycan array binding signal (z-score) [18]: -0.045 | glycan array binding signal (z-score) [19]: -0.321 | glycan array binding signal (z-score) [20]: -1 | glycan array binding signal (z-score) (GlcNAc(b1-3)GalNAc): -0.34 | glycan array binding signal (z-score) (GlcNAc(b1-3)Man): 0.29 | glycan array binding signal (z-score) [21]: 2.06 | glycan array binding signal (z-score) [22]: 1.04 | glycan array binding signal (z-score) [23]: -0.998 | glycan array binding signal (z-score) [24]: -0.159 | glycan array binding signal (z-score) (GlcNAc(b1-4)GlcNAc): 0.04 | glycan array binding signal (z-score) [25]: -1.3 | glycan array binding signal (z-score) [26]: 0.495 | glycan array binding signal (z-score) [27]: 1.42 | glycan array binding signal (z-score) [28]: 0.748 | glycan array binding signal (z-score) [29]: 0.29 | glycan array binding signal (z-score) (GlcNAc(b1-6)GalNAc): -0.683 | glycan array binding signal (z-score) [30]: 1.45 | glycan array binding signal (z-score) (Kdn(a2-3)Gal(b1-3)GalNAc): 0.204 | glycan array binding signal (z-score) (Kdn(a2-3)Gal(b1-3)GlcNAc): -0.135 | glycan array binding signal (z-score) (Kdn(a2-3)Gal(b1-4)Glc): 0.205 | glycan array binding signal (z-score) (Kdn(a2-3)Gal(b1-4)GlcNAc): 0.091 | glycan array binding signal (z-score) [31]: 0.083 | glycan array binding signal (z-score) (Kdn(a2-6)Gal(b1-4)GlcNAc): 0.575 | glycan array binding signal (z-score) [32]: -1.3 | glycan array binding signal (z-score) [33]: 1.32 | glycan array binding signal (z-score) (Man(a1-2)Man(a1-3)Man): -1.46 | glycan array binding signal (z-score) [34]: -0.663
